Test results: patent US5272177A, “Use of sebacic acid and derivatives thereof in enteral and parenteral nutrition and pharmaceutical compositions containing said compounds” (priority 1989, dated 1993)
At least one compound was matched to its structure with a doubt left.

System: healthy male volunteers
Experiment: Respiratory and metabolic parameters by indirect calorimetry during infusion
Type: in vivo
Description: Respiratory and metabolic parameters were evaluated by indirect calorimetry from the beginning of the infusion for 210 minutes.

With `O=C(O)CCCCCCCCC(=O)O` [sebacate] the “Metabolic rate (MR)” value (entire study period) was “remained constant” and the “O2 consumption (VO2), change” value (throughout the experiment) was “remained essentially unchanged”.
